Experimental data: article PMC4848314
Results are given in words; binding and its absence hold for the method and conditions named. In cells and extracts the contact can be indirect. Some results given as binding are weak or reduced against the parent protein; the word gives no strength.

How the values were obtained:
HDA6 (Arabidopsis) = biological target: T1, HDA6 (Arabidopsis) (UniProt Q9FML2); assay: split reporter; BiFC; YN and YC fusions of full-length cDNAs transiently transformed into tobacco (Nicotiana benthamiana) leaves; confocal microscopy
T1 sequence: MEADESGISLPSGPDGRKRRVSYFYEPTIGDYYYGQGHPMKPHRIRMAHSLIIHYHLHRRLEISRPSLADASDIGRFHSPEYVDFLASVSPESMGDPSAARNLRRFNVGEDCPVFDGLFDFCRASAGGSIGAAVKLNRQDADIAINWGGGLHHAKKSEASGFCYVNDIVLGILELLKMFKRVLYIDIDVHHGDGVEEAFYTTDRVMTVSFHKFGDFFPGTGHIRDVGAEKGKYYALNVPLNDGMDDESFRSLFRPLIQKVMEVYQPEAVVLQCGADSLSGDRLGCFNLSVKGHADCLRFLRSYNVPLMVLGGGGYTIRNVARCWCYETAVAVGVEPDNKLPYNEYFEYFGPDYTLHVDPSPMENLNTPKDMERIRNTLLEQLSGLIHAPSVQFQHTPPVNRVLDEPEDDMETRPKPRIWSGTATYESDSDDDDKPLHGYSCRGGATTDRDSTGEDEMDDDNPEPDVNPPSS

FLD (Arabidopsis) = biological target: T2, FLD (Arabidopsis) (UniProt Q9CAE3); assay: as above
T2 sequence: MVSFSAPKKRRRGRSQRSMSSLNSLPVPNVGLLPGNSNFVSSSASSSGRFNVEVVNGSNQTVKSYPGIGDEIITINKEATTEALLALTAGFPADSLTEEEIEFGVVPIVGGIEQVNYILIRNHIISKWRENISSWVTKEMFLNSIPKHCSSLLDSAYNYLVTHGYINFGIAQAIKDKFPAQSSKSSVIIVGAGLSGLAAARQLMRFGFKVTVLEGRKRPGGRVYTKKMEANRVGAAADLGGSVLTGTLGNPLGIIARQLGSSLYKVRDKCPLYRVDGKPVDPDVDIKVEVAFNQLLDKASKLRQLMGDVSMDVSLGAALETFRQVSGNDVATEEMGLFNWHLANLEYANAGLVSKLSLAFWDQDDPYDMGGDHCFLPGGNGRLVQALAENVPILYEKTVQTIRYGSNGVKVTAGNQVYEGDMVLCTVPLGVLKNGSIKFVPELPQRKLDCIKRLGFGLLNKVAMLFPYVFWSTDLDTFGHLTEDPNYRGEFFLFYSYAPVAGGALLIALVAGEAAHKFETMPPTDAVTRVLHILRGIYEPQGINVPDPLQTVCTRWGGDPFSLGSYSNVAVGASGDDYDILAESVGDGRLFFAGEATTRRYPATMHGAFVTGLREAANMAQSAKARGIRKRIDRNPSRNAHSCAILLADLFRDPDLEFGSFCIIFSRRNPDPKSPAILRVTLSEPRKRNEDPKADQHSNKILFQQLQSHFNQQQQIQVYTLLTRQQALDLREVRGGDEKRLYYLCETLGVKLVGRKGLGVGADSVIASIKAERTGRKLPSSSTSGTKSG

binding (HDA6 (Arabidopsis)): binds | binding (FLD (Arabidopsis)): binds
B1: FVE/MSI4 (protein, UniProt O22607 1-507)
chain: MESDEAAAVSPQATTPSGGTGASGPKKRGRKPKTKEDSQTPSSQQQSDVKMKESGKKTQQSPSVDEKYSQWKGLVPILYDWLANHNLVWPSLSCRWGPQLEQATYKNRQRLYLSEQTDGSVPNTLVIANCEVVKPRVAAAEHISQFNEEARSPFVKKYKTIIHPGEVNRIRELPQNSKIVATHTDSPDVLIWDVETQPNRHAVLGAANSRPDLILTGHQDNAEFALAMCPTEPFVLSGGKDKSVVLWSIQDHITTIGTDSKSSGSIIKQTGEGTDKNESPTVGPRGVYHGHEDTVEDVAFSPTSAQEFCSVGDDSCLILWDARTGTNPVTKVEKAHDADLHCVDWNPHDDNLILTGSADNTVRLFDRRKLTANGVGSPIYKFEGHKAAVLCVQWSPDKSSVFGSSAEDGLLNIWDYDRVSKKSDRAAKSPAGLFFQHAGHRDKVVDFHWNASDPWTIVSVSDDCETTGGGGTLQIWRMSDLIYRPEEEVVAELEKFKSHVMTCASKP
